Taken from: PubChem BioAssay AID1259405 (NCATS, 2018)
This is a random part of about 50,000 reagents. About 4,000 of them (8%) count as active. 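Mouse siRNA library applied to hamster cells; one well for each siRNA.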 The numbers tell different reagents against one gene apart.

- Aim: 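Knock-downs that lift recombinant protein yield in hamster ovary cells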 (primary screen)
- System: Chinese hamster CHO-K1 ovary cells with stable secreted eGFP expression
- Reagents: single siRNA against mouse genes, 0.8 pmol siRNA per well (2 µl of 400 nM stock)
- Timing: 3 days
- Measured: 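Percent of the per-plate non-targeting control median for intracellular GFP per well by laser scanning cytometry and for cell viability by ATP luminescence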
- Scale: GFP, % of control: higher = more GFP per well, higher productivity; viability (ATP), % of control: higher = more viable cells (more ATP)
- Hit rule: 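Called active when intracellular GFP, relative to negative control, is at or above 120%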

For Dio3 #1, what was measured?
GFP, % of control: 105; viability (ATP), % of control: 103; call: inactive

With Dio3 #2, what was measured?
GFP, % of control: 97.4; viability (ATP), % of control: 81.4; call: inactive

What is on record for Dio3 #3?
GFP, % of control: 61.6; viability (ATP), % of control: 77.4; call: inactive

What is on record for Apol10b #1?
GFP, % of control: 104; viability (ATP), % of control: 99.7; call: inactive

What did the screen give for Apol10b #2?
GFP, % of control: 79.3; viability (ATP), % of control: 92.2; call: inactive

Which result is listed for Apol10b #3?
GFP, % of control: 64; viability (ATP), % of control: 72.5; call: inactive

Which result is listed for Msantd5l #1?
GFP, % of control: 75.3; viability (ATP), % of control: 87.7; call: inactive

How did the screen score Msantd5l #2?
GFP, % of control: 87.9; viability (ATP), % of control: 89.9; call: inactive

How did the screen score Msantd5l #3?
GFP, % of control: 137; viability (ATP), % of control: 127; call: active

How did the screen score Fbrsl1 #1?
GFP, % of control: 69; viability (ATP), % of control: 67.3; call: inactive

Which result is listed for Fbrsl1 #2?
GFP, % of control: 71.4; viability (ATP), % of control: 72.9; call: inactive

With Fbrsl1 #3, what does the deposit list?
GFP, % of control: 72.9; viability (ATP), % of control: 76.9; call: inactive

With P2rx3 #1, what was measured?
GFP, % of control: 79.9; viability (ATP), % of control: 64.7; call: inactive

With P2rx3 #2, what does the deposit list?
GFP, % of control: 52.6; viability (ATP), % of control: 59.7; call: inactive

Which result is listed for P2rx3 #3?
GFP, % of control: 84.8; viability (ATP), % of control: 68.9; call: inactive

With Col16a1 #1, what does the deposit list?
GFP, % of control: 84.5; viability (ATP), % of control: 137; call: inactive

What is on record for Col16a1 #2?
GFP, % of control: 77.4; viability (ATP), % of control: 87.2; call: inactive

How did the screen score Or8g37 #1?
GFP, % of control: 61.5; viability (ATP), % of control: 63.8; call: inactive

Which result is listed for Or8g37 #2?
GFP, % of control: 25.4; viability (ATP), % of control: 19.2; call: inactive

What did the screen give for Or8g37 #3?
GFP, % of control: 48.4; viability (ATP), % of control: 56.8; call: inactive

For Esyt3 #1, what does the deposit list?
GFP, % of control: 101; viability (ATP), % of control: 87.6; call: inactive

What did the screen give for Esyt3 #2?
GFP, % of control: 48.2; viability (ATP), % of control: 45; call: inactive

For Esyt3 #3, how do the results read?
GFP, % of control: 112; viability (ATP), % of control: 102; call: inactive

For Gemin2 #1, how do the results read?
GFP, % of control: 68.5; viability (ATP), % of control: 78.2; call: inactive

What did the screen give for Gemin2 #2?
GFP, % of control: 83; viability (ATP), % of control: 83.7; call: inactive

What is on record for Gemin2 #3?
GFP, % of control: 68.6; viability (ATP), % of control: 70.2; call: inactive

For Pwwp3b #1, how do the results read?
GFP, % of control: 25.5; viability (ATP), % of control: 31.1; call: inactive

With Pwwp3b #2, what was measured?
GFP, % of control: 25.4; viability (ATP), % of control: 25.4; call: inactive

What did the screen give for Pwwp3b #3?
GFP, % of control: 69.4; viability (ATP), % of control: 80.5; call: inactive

How did the screen score Rgs7bp #1?
GFP, % of control: 86.3; viability (ATP), % of control: 113; call: inactive

For Rgs7bp #2, what was measured?
GFP, % of control: 93.6; viability (ATP), % of control: 87.2; call: inactive

For Rgs7bp #3, how do the results read?
GFP, % of control: 143; viability (ATP), % of control: 121; call: active

Which result is listed for Plb1 #1?
GFP, % of control: 114; viability (ATP), % of control: 79.5; call: inactive

What is on record for Plb1 #2?
GFP, % of control: 81.7; viability (ATP), % of control: 71; call: inactive

Which result is listed for Plb1 #3?
GFP, % of control: 85.1; viability (ATP), % of control: 37.3; call: inactive

With Dnah8 #1, what does the deposit list?
GFP, % of control: 60.8; viability (ATP), % of control: 68.7; call: inactive

For Dnah8 #2, what does the deposit list?
GFP, % of control: 73.1; viability (ATP), % of control: 71.1; call: inactive

What is on record for Spmap1 #1?
GFP, % of control: 104; viability (ATP), % of control: 109; call: inactive

With Spmap1 #2, how do the results read?
GFP, % of control: 83.5; viability (ATP), % of control: 86.5; call: inactive

Which result is listed for Spmap1 #3?
GFP, % of control: 84.7; viability (ATP), % of control: 38.2; call: inactive

Part of the list above, reformatted:
Fbrsl1 #1
- GFP, % of control: 69
- viability (ATP), % of control: 67.3
- call: inactive

Fbrsl1 #2
- GFP, % of control: 71.4
- viability (ATP), % of control: 72.9
- call: inactive

Fbrsl1 #3
- GFP, % of control: 72.9
- viability (ATP), % of control: 76.9
- call: inactive

P2rx3 #1
- GFP, % of control: 79.9
- viability (ATP), % of control: 64.7
- call: inactive
